Laboratory results taken from paper PMC10709454.
No constants are given. Whether binding was seen depends on the method and setting. Binding seen in cells or lysates may run through a third protein. Some entries that bind do so weakly or less than the wild type.

By UniProt entry, the sequences of proteins in these tests, tags left out.
UniProt P45974: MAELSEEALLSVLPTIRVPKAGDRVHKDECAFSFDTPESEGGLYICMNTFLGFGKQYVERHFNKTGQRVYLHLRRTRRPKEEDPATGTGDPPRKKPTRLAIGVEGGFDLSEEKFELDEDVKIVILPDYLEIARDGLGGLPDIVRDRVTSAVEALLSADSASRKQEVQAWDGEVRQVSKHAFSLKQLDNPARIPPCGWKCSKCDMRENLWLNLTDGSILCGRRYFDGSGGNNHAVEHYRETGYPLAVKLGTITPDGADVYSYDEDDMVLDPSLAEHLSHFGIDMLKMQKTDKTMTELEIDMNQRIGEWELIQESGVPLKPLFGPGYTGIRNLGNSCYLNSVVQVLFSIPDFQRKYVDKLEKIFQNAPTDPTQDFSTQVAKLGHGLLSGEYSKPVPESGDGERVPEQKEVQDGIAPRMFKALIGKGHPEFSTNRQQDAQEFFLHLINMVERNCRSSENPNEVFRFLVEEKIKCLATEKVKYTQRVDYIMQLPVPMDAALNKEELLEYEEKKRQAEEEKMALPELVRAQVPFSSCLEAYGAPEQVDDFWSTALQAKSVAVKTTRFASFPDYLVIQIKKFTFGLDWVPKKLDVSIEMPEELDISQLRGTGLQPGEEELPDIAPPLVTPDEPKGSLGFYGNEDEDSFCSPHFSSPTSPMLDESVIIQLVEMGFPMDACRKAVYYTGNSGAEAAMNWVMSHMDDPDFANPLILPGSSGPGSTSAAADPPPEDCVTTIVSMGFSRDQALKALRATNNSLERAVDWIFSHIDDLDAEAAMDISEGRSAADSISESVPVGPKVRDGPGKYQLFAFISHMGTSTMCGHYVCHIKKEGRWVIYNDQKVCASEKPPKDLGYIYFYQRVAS

Target: T1, common cytokine receptor γ chain (human (endogenous in Jurkat)) (UniProt P31785)
T1 sequence: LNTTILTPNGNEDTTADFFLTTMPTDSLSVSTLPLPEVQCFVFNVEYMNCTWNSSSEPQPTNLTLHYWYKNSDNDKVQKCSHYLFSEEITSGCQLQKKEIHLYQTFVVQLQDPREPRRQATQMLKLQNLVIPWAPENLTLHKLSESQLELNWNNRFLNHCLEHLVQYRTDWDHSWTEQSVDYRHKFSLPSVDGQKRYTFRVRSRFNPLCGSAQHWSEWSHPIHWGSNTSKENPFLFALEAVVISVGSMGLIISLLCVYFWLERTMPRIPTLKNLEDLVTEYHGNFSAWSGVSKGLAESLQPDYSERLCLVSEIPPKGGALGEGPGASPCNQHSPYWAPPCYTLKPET
Test: co-IP; endogenous proteins; Jurkat-PD-1 cells stimulated with PHA (50 or 150 ng/mL) in the presence of plate-bound hPD-L1-Fc fusion protein (or control hIgG1, 2 μg/mL) for the indicated times; NP-40 lysis buffer, Protein-G Sepharose, 4 °C for 3 h, washed with lysis buffer containing 500 mM NaCl …

binding: binds
Substance: USP5 (from UniProt P45974 1-858) (enzyme)
